PubChem BioAssay AID1259290 – Sanger Institute – 2017
Shown is a random part of 794 reagents. 9 of all reagents (1.1%) were called active. 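Calls rest on knock-down alone, not drug synergy; synergy above 0.15 was grouped apart and does not affect calls.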 No viability above 1 is reported: the scale is capped. Not given: the amount of reagent, the time to read-out.

Assay: 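siRNA screen across the kinome seeking synthetic lethal partners for BYL719, cetuximab or trametinib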 (primary screen)
System: human SNUC1 colorectal cancer cells
Reagents: siRNA pool against human genes
Conditions: anchor drugs BYL719 1 µM, cetuximab 5 µg/ml or trametinib 10 nM, or DMSO vehicle alone
Measured: 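Viability averaged over replicates and scaled to non-targeting siRNA, robust z-score with no drug, and synergy scores by drug for BYL719, cetuximab and trametinib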
Reading the numbers: viability z-score, siRNA alone: higher = more viable cells; low values mean essential gene; viability vs control, siRNA alone: higher = more viable cells; synergy score with BYL719 and synergy score with Cetuximab and synergy score with Trametinib: higher = stronger synthetic lethal effect with drug
Rule for the call: 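a knock-down without drug scoring a robust z under -3 counts as essential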
Calls: active = essential: knock-down alone cut viability (z below -3); inactive = no clear viability loss with knock-down alone

| target | viability z-score, siRNA alone | viability vs control, siRNA alone | synergy score with BYL719 | synergy score with Cetuximab | synergy score with Trametinib | activity call |
| --- | --- | --- | --- | --- | --- | --- |
| PIK3R1 (phosphoinositide-3-kinase regulatory subunit 1) | 0.616 | 0.971 | -0.194 | 0.000491 | -0.0653 | inactive |
| GSK3B (glycogen synthase kinase 3 beta) | 0.407 | 0.952 | -0.121 | -0.0903 | -0.0243 | inactive |
| PHKG2 (phosphorylase kinase catalytic subunit gamma 2) | 0.936 | 1 | -0.121 | -0.0447 | -0.0203 | inactive |
| HIPK3 (homeodomain interacting protein kinase 3) | -0.0103 | 0.915 | -0.078 | -0.0346 | 0.0201 | inactive |
| GCK (glucokinase) | -0.246 | 0.894 | -0.163 | -0.112 | -0.123 | inactive |
| CHD4 (chromodomain helicase DNA binding protein 4) | -1.66 | 0.766 | 0.105 | 0.0402 | 0.00205 | inactive |
| ADCK5 (aarF domain containing kinase 5) | 0.646 | 0.974 | -0.149 | 0.139 | -0.139 | inactive |
| ERBB3 (erb-b2 receptor tyrosine kinase 3) | 0.199 | 0.934 | -0.251 | -0.0659 | -0.028 | inactive |
| RBKS (ribokinase) | 0.936 | 1 | -0.198 | 0.0917 | -0.143 | inactive |
| PLK4 (polo like kinase 4) | -2.56 | 0.685 | -0.25 | -0.029 | -0.262 | inactive |
| CAMKK1 (calcium/calmodulin dependent protein kinase kinase 1) | 0.666 | 0.976 | -0.135 | -0.0585 | -0.0383 | inactive |
| STK10 (serine/threonine kinase 10) | -0.379 | 0.882 | -0.0812 | 0.0812 | 0.0162 | inactive |
| N4BP2 (NEDD4 binding protein 2) | -0.354 | 0.884 | -0.201 | 0.0777 | 0.0147 | inactive |
| IRAK1 (interleukin 1 receptor associated kinase 1) | 0.76 | 0.984 | -0.151 | 0.0615 | 0.0509 | inactive |
| TYRO3 (TYRO3 protein tyrosine kinase) | 0.936 | 1 | -0.0789 | -0.0447 | 0.0473 | inactive |
| CHEK2 (checkpoint kinase 2) | 0.759 | 0.984 | -0.21 | 0.0463 | -0.0316 | inactive |
| MAP2K5 (mitogen-activated protein kinase kinase 5) | 0.936 | 1 | -0.198 | -0.0315 | -0.158 | inactive |
| HUNK (hormonally up-regulated Neu-associated kinase) | 0.936 | 1 | -0.0353 | -0.0447 | 0.199 | inactive |
| MAPKAPK3 (MAPK activated protein kinase 3) | 0.736 | 0.982 | -0.0306 | 0.0732 | 0.0616 | inactive |
| DLG3 (discs large MAGUK scaffold protein 3) | -1.2 | 0.807 | -0.148 | -0.0254 | 0.07 | inactive |
| ITPKC (inositol-trisphosphate 3-kinase C) | 0.936 | 1 | 0.0404 | 0.0279 | 0.0682 | inactive |
| UCK2 (uridine-cytidine kinase 2) | 0.936 | 1 | 0.0117 | 0.104 | 0.0814 | inactive |
| PRKDC (protein kinase, DNA-activated, catalytic subunit) | 0.929 | 0.999 | 0.188 | 0.00355 | 0.188 | inactive |
| CDK11A (cyclin dependent kinase 11A) | -2.18 | 0.719 | -0.291 | 0.0101 | -0.192 | inactive |
| TTK (TTK protein kinase) | 0.936 | 1 | -0.198 | -0.0447 | 0.0723 | inactive |
| RAF1 (Raf-1 proto-oncogene, serine/threonine kinase) | 0.734 | 0.982 | -0.112 | -0.00912 | 0.0261 | inactive |
| GNAS (GNAS complex locus) | 0.653 | 0.974 | 0.0394 | -0.0395 | 0.168 | inactive |
| NLK (nemo like kinase) | 0.936 | 1 | -0.198 | -0.0447 | 0.0241 | inactive |
| DGKK (diacylglycerol kinase kappa) | -1.39 | 0.79 | -0.115 | 0.0281 | -0.223 | inactive |
| SGK2 (serum/glucocorticoid regulated kinase 2) | 0.936 | 1 | -0.101 | -0.0447 | 0.0104 | inactive |
| CDK11B (cyclin dependent kinase 11B) | 0.801 | 0.988 | -0.119 | 0.0807 | -0.0618 | inactive |
| PDGFRA (platelet derived growth factor receptor alpha) | 0.936 | 1 | -0.198 | -0.0447 | 0.075 | inactive |
| GUCY2EP (guanylate cyclase 2E, pseudogene) | 0.936 | 1 | 0.0642 | -0.0104 | 0.0939 | inactive |
| ACVR1 (activin A receptor type 1) | -1.77 | 0.757 | -0.123 | -0.0373 | 0.00584 | inactive |
